The values below come from patent publication US12209143B2 (The University of Chicago, priority 2019, dated 2025).

The data set is described as follows: general procedure: Fmoc solid-phase peptide synthesis; HCTU/DIPEA. Conditions: cyclisation step, determined by LC-MS.

Substance Ac-SCFGGRK(mal)DRIGAQC(hex)GLGCNSF had a cyclisation yield above 55%.
